This is an account of results in the supplement of paper PMC12067093, “Discovery and optimisation of a covalent ligand for TRIM25 and its application to targeted protein ubiquitination” (Chemical Science, 2025).

Sequences of proteins named here, by UniProt entry; tags and fusion partners are left off. A change or cut given only in a name is not applied to a line headed by its entry.
UniProt Q13485: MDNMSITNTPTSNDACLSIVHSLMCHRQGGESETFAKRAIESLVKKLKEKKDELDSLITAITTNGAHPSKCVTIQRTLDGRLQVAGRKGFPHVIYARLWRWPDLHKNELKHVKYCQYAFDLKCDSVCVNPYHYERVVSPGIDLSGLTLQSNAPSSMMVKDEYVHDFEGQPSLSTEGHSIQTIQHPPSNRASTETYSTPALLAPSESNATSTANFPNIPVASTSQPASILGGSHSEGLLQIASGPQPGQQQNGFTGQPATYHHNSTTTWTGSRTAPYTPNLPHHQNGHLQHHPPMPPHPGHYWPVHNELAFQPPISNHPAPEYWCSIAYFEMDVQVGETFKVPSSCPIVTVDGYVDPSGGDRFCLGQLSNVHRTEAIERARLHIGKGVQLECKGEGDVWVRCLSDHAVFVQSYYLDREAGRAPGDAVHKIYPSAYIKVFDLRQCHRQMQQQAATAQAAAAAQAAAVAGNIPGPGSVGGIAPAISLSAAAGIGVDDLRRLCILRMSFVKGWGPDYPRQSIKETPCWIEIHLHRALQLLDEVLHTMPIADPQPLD
UniProt A6NHR9: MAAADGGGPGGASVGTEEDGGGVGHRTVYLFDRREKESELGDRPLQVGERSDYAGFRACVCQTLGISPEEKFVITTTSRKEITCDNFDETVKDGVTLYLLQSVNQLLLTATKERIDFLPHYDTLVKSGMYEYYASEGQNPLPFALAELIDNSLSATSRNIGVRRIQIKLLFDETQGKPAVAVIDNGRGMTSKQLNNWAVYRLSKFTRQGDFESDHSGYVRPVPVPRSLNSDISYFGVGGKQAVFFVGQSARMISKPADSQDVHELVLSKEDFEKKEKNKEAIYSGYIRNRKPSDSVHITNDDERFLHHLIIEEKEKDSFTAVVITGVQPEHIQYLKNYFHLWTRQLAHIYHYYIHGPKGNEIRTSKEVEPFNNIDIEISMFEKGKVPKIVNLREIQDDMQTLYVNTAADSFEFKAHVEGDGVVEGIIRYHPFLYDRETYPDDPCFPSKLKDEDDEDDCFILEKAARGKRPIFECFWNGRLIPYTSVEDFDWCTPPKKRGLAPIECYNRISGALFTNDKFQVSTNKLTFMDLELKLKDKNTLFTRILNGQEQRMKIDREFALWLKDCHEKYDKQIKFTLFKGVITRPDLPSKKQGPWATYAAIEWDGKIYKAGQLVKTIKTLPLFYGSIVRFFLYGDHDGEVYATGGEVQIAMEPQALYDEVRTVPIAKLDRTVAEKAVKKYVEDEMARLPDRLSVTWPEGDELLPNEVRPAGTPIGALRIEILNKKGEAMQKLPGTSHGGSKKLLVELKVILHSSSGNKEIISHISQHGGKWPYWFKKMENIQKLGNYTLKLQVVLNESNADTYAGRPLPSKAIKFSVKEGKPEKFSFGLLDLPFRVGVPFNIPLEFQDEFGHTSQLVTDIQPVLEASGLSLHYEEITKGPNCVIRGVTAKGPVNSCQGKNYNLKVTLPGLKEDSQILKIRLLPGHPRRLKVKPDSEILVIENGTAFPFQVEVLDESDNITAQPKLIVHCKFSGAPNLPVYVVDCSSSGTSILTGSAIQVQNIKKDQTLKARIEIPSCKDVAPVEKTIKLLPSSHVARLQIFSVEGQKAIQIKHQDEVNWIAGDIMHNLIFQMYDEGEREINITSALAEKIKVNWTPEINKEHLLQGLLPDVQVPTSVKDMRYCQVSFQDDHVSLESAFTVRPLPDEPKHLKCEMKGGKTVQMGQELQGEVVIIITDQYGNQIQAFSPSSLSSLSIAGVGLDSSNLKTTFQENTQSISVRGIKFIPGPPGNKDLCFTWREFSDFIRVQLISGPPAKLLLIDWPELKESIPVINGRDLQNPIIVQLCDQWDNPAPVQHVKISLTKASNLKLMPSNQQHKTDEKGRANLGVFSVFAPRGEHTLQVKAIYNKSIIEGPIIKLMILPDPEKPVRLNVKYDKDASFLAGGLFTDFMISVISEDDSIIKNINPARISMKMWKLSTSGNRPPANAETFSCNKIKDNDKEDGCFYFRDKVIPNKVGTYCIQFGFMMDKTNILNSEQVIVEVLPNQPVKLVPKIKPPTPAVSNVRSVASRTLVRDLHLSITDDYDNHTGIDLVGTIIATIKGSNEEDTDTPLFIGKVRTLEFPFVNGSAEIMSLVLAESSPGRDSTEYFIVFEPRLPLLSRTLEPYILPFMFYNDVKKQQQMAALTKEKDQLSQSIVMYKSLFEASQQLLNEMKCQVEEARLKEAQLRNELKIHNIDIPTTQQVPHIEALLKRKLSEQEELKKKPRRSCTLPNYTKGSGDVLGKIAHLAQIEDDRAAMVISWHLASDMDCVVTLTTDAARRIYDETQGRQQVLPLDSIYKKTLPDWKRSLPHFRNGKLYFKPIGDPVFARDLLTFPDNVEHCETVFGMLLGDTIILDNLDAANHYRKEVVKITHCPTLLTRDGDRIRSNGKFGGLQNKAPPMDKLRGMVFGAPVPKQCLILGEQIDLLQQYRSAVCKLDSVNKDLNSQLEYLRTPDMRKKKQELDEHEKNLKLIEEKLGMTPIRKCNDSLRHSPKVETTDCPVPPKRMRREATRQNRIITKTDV
UniProt Q9H4L7: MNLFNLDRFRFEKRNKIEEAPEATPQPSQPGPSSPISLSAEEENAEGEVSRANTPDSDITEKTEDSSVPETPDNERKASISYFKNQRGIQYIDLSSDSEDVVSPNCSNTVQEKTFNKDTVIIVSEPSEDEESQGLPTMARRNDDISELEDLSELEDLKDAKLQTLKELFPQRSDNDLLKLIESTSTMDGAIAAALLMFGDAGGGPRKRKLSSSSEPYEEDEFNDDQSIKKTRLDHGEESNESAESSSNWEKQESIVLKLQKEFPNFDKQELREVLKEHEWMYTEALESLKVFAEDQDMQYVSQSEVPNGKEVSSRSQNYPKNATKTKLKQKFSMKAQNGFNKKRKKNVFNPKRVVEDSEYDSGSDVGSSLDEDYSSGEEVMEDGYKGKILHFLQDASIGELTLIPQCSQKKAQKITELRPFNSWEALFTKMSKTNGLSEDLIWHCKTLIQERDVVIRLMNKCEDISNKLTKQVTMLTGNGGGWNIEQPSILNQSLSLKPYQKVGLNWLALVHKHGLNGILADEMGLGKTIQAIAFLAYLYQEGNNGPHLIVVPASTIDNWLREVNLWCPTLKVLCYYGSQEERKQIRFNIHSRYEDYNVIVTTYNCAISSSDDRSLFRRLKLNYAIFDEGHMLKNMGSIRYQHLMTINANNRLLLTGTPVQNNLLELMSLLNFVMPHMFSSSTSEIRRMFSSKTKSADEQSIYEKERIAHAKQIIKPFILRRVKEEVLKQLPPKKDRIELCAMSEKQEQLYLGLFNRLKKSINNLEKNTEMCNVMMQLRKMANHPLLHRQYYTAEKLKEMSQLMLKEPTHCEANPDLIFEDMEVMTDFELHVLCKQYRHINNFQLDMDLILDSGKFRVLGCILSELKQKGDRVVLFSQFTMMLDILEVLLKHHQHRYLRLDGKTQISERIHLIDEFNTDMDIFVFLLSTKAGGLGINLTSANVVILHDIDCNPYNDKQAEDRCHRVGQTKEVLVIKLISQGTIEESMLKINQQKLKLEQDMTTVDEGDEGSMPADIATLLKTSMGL
UniProt Q14683: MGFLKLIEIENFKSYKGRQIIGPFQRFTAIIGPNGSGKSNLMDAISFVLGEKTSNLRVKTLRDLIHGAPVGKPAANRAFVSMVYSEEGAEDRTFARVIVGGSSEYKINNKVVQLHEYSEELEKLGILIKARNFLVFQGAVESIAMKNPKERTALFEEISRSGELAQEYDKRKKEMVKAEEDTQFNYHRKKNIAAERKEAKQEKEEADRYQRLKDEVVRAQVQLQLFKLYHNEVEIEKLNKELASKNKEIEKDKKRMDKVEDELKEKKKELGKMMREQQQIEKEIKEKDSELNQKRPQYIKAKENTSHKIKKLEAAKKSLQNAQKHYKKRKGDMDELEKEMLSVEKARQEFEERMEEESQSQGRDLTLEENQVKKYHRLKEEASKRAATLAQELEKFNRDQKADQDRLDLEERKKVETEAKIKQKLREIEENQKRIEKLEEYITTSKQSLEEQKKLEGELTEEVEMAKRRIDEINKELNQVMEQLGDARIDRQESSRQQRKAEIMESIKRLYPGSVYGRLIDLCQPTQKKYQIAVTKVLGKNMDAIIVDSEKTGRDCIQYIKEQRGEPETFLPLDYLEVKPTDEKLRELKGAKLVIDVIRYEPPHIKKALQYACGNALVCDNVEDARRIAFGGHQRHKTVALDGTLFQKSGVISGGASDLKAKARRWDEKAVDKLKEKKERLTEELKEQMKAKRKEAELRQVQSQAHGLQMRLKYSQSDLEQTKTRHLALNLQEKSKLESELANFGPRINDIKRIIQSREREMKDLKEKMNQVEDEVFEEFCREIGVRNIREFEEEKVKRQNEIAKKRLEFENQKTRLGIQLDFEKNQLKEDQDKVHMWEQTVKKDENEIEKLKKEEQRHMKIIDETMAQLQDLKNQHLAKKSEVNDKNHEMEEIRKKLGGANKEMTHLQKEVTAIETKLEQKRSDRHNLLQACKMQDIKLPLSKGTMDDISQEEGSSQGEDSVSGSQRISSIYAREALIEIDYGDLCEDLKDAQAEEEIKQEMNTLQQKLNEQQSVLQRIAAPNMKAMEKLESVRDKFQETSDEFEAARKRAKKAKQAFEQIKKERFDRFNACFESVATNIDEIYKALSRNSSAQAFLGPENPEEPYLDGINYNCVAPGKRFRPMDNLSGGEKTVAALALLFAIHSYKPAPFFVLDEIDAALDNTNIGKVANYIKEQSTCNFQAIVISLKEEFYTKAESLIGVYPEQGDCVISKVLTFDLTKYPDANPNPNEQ
UniProt Q9C0K1: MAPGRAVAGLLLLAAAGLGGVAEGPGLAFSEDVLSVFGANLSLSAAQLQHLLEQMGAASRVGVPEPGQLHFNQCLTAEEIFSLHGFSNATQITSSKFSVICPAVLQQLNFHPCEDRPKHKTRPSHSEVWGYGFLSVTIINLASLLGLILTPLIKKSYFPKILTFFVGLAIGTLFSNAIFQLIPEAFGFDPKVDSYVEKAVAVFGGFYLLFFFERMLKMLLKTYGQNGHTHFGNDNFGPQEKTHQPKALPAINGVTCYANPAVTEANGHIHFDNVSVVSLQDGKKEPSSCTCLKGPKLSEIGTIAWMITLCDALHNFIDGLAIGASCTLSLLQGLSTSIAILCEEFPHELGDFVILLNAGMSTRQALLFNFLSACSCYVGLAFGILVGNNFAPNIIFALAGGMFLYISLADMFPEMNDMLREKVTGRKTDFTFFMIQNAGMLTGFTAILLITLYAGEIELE
UniProt Q9H7B4: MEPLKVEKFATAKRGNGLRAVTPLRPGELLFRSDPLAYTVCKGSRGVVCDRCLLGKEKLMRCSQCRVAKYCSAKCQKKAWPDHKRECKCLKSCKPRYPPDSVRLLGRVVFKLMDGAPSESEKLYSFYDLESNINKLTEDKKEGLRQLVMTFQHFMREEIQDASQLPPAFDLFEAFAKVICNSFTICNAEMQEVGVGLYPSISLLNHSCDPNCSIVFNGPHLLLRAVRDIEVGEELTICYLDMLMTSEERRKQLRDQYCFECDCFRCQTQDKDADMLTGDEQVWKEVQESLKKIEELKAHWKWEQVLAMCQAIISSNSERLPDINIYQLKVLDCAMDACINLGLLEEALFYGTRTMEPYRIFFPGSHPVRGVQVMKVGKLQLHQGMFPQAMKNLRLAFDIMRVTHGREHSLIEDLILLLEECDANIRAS
UniProt Q9ULF5: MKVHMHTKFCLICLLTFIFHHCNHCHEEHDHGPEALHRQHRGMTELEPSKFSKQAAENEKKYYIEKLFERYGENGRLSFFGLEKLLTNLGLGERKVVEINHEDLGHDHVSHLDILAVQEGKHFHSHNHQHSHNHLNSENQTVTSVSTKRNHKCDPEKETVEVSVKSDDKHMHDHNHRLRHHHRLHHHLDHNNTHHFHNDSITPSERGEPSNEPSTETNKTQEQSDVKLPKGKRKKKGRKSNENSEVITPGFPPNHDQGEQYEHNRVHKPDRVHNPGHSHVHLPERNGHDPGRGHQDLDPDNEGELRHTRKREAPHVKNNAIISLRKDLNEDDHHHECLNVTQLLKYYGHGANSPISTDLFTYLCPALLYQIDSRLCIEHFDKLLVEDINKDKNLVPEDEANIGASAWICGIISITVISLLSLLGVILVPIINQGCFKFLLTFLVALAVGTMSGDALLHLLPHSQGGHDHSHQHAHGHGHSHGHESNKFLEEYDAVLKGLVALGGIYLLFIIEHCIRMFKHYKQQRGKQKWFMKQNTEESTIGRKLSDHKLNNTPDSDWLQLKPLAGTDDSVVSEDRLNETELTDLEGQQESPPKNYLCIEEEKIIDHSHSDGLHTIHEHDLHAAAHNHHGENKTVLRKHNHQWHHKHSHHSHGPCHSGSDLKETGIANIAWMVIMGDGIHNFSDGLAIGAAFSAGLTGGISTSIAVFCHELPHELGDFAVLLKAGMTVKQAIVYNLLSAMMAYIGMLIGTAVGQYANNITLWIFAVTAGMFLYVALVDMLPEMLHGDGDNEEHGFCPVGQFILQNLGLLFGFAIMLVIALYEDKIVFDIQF

The list shows a part of the results.
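Also: competitive chemoproteomic profiling in live THP-1 cells with an iodoacetamide desthiobiotin (IA-DTB) probe, comparing probe-labelled peptide intensities in compound-treated cells against DMSO-treated controls.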

Compound in the assay: CC1Cc2ccccc2N1C(=O)C1CCCN(C1)C(=O)CCl (mixture of isomers) [TRIM25 ligand 11 (diastereomer mixture)]
Nature of the assay: probe-labelled cysteine peptide fold change vs DMSO (competition) (log2 fold change); higher = less target engagement (more negative = stronger competition). The note with it: 50 µM; THP-1; incubation time: 4 h.
“SMURF2_Q9HAU4_393_QELSQQQPQAGHCR (UniProt Q9HAU4)”: the “probe-labelled cysteine peptide fold change” value was -0.215.

As for “SMARCC1_Q92922_164_TLVQNNCLTRPNIYLIPDIDLK (UniProt Q92922)”, the “probe-labelled cysteine peptide fold change” value was -0.0481.

In the case of “SNRNP200_O75643_1506_DVAHWLGCSATSTFNFHPNVR (UniProt O75643)”, the “probe-labelled cysteine peptide fold change” value turned out to be 0.14.

As for “SLC44A1_Q8WWI5_117_SVALCVAACPR (UniProt Q8WWI5)”, the “probe-labelled cysteine peptide fold change” value came to 0.0124.

On to “SNRNP200_O75643_1278_VVSDRWLSCETQLPVSFR (UniProt O75643)”, for which the “probe-labelled cysteine peptide fold change” value was -0.0648.

Turning to “SNRNP200_O75643_576_LATYGITVAELTGDHQLCK (UniProt O75643)”, the “probe-labelled cysteine peptide fold change” value is 0.107.

With “SLC5A6_Q9Y289_577_LLSLLPLSCQK (UniProt Q9Y289)”, the “probe-labelled cysteine peptide fold change” value was 0.0259.

“SMAD4_Q13485_391_GVQLECK (UniProt Q13485)”: the “probe-labelled cysteine peptide fold change” value worked out at 0.21.

In the case of “SMCHD1_A6NHR9_444_ETYPDDPCFPSK (UniProt A6NHR9)”, the “probe-labelled cysteine peptide fold change” value is -0.175.

Regarding “SMN2_Q16637_98_CSAIWSEDGCIYPATIASIDFKR (UniProt Q16637)”, the “probe-labelled cysteine peptide fold change” value was -0.214.

For the target “SMU1_Q2TAY7_448_EGGDFVCCALSPR (UniProt Q2TAY7)”, the “probe-labelled cysteine peptide fold change” value is 0.134.

Turning to “SNRNP200_O75643_1471_KNVQNINLFVVDEVHLIGGENGPVLEVICSR (UniProt O75643)”, the “probe-labelled cysteine peptide fold change” value was 0.107.

Regarding “SMARCAD1_Q9H4L7_772_NTEMCNVMMQLR (UniProt Q9H4L7)”, the “probe-labelled cysteine peptide fold change” value is -0.132.

With “SMG7_Q92540_537_NLSNNCDTGEK (UniProt Q92540)”, the “probe-labelled cysteine peptide fold change” value turned out to be 0.0605.

“SMAD4_Q13485_523_ETPCWIEIHLHR (UniProt Q13485)”: the “probe-labelled cysteine peptide fold change” value was -0.00398.

Regarding “SNRNP200_O75643_2011_FCNRYPNIELSYEVVDK (UniProt O75643)”, the “probe-labelled cysteine peptide fold change” value is -0.0103.

Consider “SMU1_Q2TAY7_219_SHVECAR (UniProt Q2TAY7)”, for which the “probe-labelled cysteine peptide fold change” value is 0.11.

Turning to “SMC1A_Q14683_619_ALQYACGNALVCDNVEDAR (UniProt Q14683)”, the “probe-labelled cysteine peptide fold change” value worked out at 0.406.

For “SLC39A8_Q9C0K1_101_FSVICPAVLQQLNFHPCEDRPK (UniProt Q9C0K1)”, the “probe-labelled cysteine peptide fold change” value is 0.105.

On to “SLMAP_Q14BN4_120_KVTHGCIVSTIK (UniProt Q14BN4)”, for which the “probe-labelled cysteine peptide fold change” value is 0.0755.

For “SMG1_Q96Q15_1715_QLISSCPWLSELDESATEGVIK (UniProt Q96Q15)”, the “probe-labelled cysteine peptide fold change” value was found to be 0.0278.

On to “SMARCAD1_Q9H4L7_407_ILHFLQDASIGELTLIPQCSQK (UniProt Q9H4L7)”, for which the “probe-labelled cysteine peptide fold change” value was 0.107.

For the target “SMYD3_Q9H7B4_261+263_DQYCFECDCFR (UniProt Q9H7B4)”, the “probe-labelled cysteine peptide fold change” value came to 0.00887.

Turning to “SMAP2_Q8WU79_196_STAPVMDLLGLDAPVACSIANSK (UniProt Q8WU79)”, the “probe-labelled cysteine peptide fold change” value was -0.252.

In the case of “SMC4_Q9NTJ3_260_GQTEHDEGMLEYLEDIIGCGR (UniProt Q9NTJ3)”, the “probe-labelled cysteine peptide fold change” value was -0.135.

Regarding “SNRNP200_O75643_1278_WLSCETQLPVSFR (UniProt O75643)”, the “probe-labelled cysteine peptide fold change” value worked out at 0.199.

Turning to “SLC4A1AP_Q9BWU0_399_EGEELEYEFDEQGHSTWLCR (UniProt Q9BWU0)”, the “probe-labelled cysteine peptide fold change” value amounted to 0.0332.

In the case of “SMNDC1_O75940_214_VGVGTCGIADKPMTQYQDTSK (UniProt O75940)”, the “probe-labelled cysteine peptide fold change” value is -0.521.

For “SMG5_Q9UPR3_109_STLECAYR (UniProt Q9UPR3)”, the “probe-labelled cysteine peptide fold change” value came out at 0.132.

Turning to “SMC1A_Q14683_1210_AESLIGVYPEQGDCVISK (UniProt Q14683)”, the “probe-labelled cysteine peptide fold change” value is 0.0393.

With “SMS_P52788_256_TCGDVLDNLKGDCYQVLIEDCIPVLKR (UniProt P52788)”, the “probe-labelled cysteine peptide fold change” value is -0.139.

In the case of “SMC5_Q8IY18_393_TTENCENLQPQIDAITNDLRR (UniProt Q8IY18)”, the “probe-labelled cysteine peptide fold change” value is -0.0267.

In the case of “SMYD4_Q8IYR2_501_HMLQLQCNAQAMTTIQHTGPK (UniProt Q8IYR2)”, the “probe-labelled cysteine peptide fold change” value stood at 0.123.

For “SLC39A10_Q9ULF5_598_NYLCIEEEK (UniProt Q9ULF5)”, the “probe-labelled cysteine peptide fold change” value is -0.158.

As for “SMCHD1_A6NHR9_1445_IKDNDKEDGCFYFR (UniProt A6NHR9)”, the “probe-labelled cysteine peptide fold change” value was -0.211.
